The chains behind the UniProt entries cited, without tags or fusion partners. Residues count along the entry.
UniProt P29317, residues 24-976: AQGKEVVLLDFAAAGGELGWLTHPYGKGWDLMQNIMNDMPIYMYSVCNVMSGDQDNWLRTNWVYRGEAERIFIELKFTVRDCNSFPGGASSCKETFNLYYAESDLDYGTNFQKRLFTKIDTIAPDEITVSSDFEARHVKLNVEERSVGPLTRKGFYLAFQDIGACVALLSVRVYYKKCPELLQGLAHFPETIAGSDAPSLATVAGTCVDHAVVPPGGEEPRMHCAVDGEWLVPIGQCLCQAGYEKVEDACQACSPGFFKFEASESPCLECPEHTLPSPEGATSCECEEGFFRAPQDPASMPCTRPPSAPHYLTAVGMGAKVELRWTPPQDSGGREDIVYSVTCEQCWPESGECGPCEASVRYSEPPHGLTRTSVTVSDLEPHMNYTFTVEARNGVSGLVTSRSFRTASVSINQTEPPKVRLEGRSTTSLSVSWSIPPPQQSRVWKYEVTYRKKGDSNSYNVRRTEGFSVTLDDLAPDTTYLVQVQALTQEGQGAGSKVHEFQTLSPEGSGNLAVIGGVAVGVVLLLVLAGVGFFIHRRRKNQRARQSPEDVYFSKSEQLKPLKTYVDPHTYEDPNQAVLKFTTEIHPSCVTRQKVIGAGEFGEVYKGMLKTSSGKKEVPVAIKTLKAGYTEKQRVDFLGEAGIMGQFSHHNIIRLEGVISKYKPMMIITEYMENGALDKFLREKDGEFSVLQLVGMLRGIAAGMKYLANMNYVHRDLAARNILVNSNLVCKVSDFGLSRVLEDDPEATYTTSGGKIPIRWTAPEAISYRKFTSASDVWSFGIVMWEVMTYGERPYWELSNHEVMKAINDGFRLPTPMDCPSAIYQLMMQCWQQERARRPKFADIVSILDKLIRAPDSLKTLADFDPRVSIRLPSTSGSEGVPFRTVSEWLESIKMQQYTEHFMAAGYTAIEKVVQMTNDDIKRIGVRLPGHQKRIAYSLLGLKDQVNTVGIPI

According to PMC5355957:

Legend:
[1] = biological target: Ephrin type-A receptor 2 (EphA2), endogenous (human (endogenous in A2780, H1299, PC3)) (UniProt P29317); experiment: co-IP; anti-EphA2 magnetic beads, endogenous proteins in lysates of untransfected A2780, H1299 and PC3 cells (H1299 also with si-LMTK3 and HGF 10 ng/ml); 0.15% Tween-20 buffer; 2 h at 4 °C; immunoblot
EphA2-GFP (human) = EphA2-GFP (human) (UniProt P29317); experiment: co-IP; anti-GFP magnetic beads, lysates of A2780 cells transfected with GFP, GFP-RCP or EphA2-GFP; 0.15% Tween-20 buffer; 2 h at 4 °C; immunoblot

Substance: Rab-coupling protein (RCP), endogenous (from UniProt Q6WKZ4-3)
- binding [1]: binds
- binding (EphA2-GFP (human)): binds

Results are given in words; binding and its absence hold for the method and conditions named. Binding seen in cells or lysates may run through a third protein. Binding can be weak; no strength is given.
